Consider 40 molecules from PubChem BioAssay AID493014 (National Center for Advancing Translational Sciences (NCATS), 2011).

Each structure is given as a SMILES string. Some of the results follow. Further columns of the screen follow, without active or inactive calls. Compounds called inactive in the main read-out are mostly missing here. The note in brackets gives the kind of curve behind each potency; many fits are weak.

The test is described as follows: qHTS Assay to Find Inhibitors of Chronic Active B-Cell Receptor Signaling. As to conditions: ABC-DLBCL IkBa-CBG/CBR reporter, luminescence ratio (green luciferase fused to IkBa over red control in TMD8 lymphoma cells), 4 h. Summed up:
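TMD8 ABC-DLBCL cells carrying doxycycline-inducible green luciferase fused to IkappaBalpha plus unfused red luciferase were exposed to compounds (up to 46 uM) for 4 hrs at 37C. Activity came from the overlap-corrected green/red luminescence ratio.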
A general note: qHTS replaces the single test concentration by a dilution series.

[1] abbreviates: measured here: CBR red luminescence, cell number.
Setting [2] is: measured here: IkBa-CBG green luminescence.

By AC50 is commonly meant the midpoint of the concentration-response curve, whichever way the signal moves. As for `CCOC(=O)C1=C(N)OC2=C(C(=O)CCC2)C1c1cccnc1` (stereo not drawn), the AC50 under setting [1] was 35.5 µM [falling, single point].
For the molecule `CCN(CC)CCNC(=O)c1ccc(Cl)c(S(=O)(=O)N2CCCCCC2)c1`, the AC50 under setting [1] is 0.82 µM [falling, full curve, poor fit].
On to `CC(=O)Cc1nsc(NC(=O)c2ccc(COc3ccccc3C)o2)n1`, for which the concentration at half-maximal activity (AC50) under setting [1] was 8.91 µM [falling, partial curve, poor fit].
Consider `COc1ccc(-c2cc3ncc(-c4ccccc4)c(N)n3n2)cc1`, for which the AC50 under setting [1] is 1 µM [falling, full curve].
In the case of `COc1ccccc1NC(=O)c1ccc(NC(=O)CSc2ncn[nH]2)cc1`, the half-maximal activity concentration (AC50) under setting [1] is 3.66 µM [rising, full curve, poor fit].
Consider `COc1ccccc1CNC(=O)CN(CCc1ccccc1)S(C)(=O)=O`, for which the concentration at half-maximal activity (AC50) under setting [1] is 0.794 µM [rising, partial curve, poor fit].
`CCOC(=O)N1CCC(NC(=O)CCC(=O)N2CC(C)Oc3ccc(Cl)cc32)CC1` (stereo not drawn): under setting [1], the AC50 was 0.164 µM [rising, full curve, poor fit].
On to `CC(C)c1ccc(NC(=O)CSC(C)c2nc3ccccc3c(=O)[nH]2)cc1` (stereo not drawn), for which the half-maximal activity concentration (AC50) under setting [1] was 35.5 µM [rising, single point].
Consider `O=c1ccc(-c2ccccc2)nn1Cc1ccc(F)cc1`, for which the AC50 under setting [1] was 0.708 µM [rising, full curve, poor fit].
As to `Cc1ccc(Cl)cc1N1CCN(C(=O)c2ccccc2SCC(=O)N2CCCC2)CC1`, the AC50 under setting [1] is 29.1 µM [falling, single point].
For the molecule `CCCCn1c(N)c(C(=S)NC(=O)CC(C)(C)C)c(=O)n(C)c1=O`, the AC50 under setting [1] was 20.6 µM [rising, single point].
`CCOC(=O)Cc1csc(NC(=O)COc2cc(C)cc(C)c2)n1`: the AC50 under setting [1] is 11.2 µM [falling, partial curve, poor fit].
`Cc1ccc(C(=O)OCc2cn3ccccc3n2)cc1`: the concentration at half-maximal activity (AC50) under setting [1] was 29.1 µM [rising, single point].
As for `COc1ccc(/C=N/NC(=O)c2ccccc2NC(=O)c2ccco2)c(OC)c1`, the half-maximal activity concentration (AC50) under setting [1] was 17.8 µM [falling, partial curve, poor fit].
The same measure, in the same setting: then `CCn1c(SCC(=O)c2ccccc2)nc2ccccc2c1=O`, with 7.94 µM [falling, partial curve].
With `COc1ccccc1C(=O)Nc1nnc(-c2ccc3c(c2)CCCC3)o1`, the half-maximal activity concentration (AC50) under setting [2] was 28.2 µM [falling, single point].
As for `COCCNC(=O)c1c[nH]c2ccc(OC)cc2c1=O`, under setting [1], the half-maximal activity concentration (AC50) was 35.5 µM [falling, single point].
Same read-out and setting: then `COc1cc(/C=N/NC(=O)c2cc(-c3ccccc3)sc2N)cc(OC)c1OC`, with 25.1 µM [falling, single point]; and `COC(=O)/C=C/COc1ccccc1[N+](=O)[O-]`, with 35.5 µM [falling, single point]; and `O=C(OCC(=O)N1CCc2ccccc21)[C@@H]1CC(O)CN1S(=O)(=O)c1ccccc1[N+](=O)[O-]` (stereo partly drawn), with 25.9 µM [rising, single point].
Regarding `Cc1noc(C)c1CSCC(=O)Nc1nc(-c2ccc(F)c(F)c2)cs1`, the concentration at half-maximal activity (AC50) was 9.2 µM [falling, partial curve] under setting [1] and 9.2 µM [rising, partial curve, poor fit] under setting [2].
In the case of `C=CCNC(=O)c1nc2ccccc2s1`, under setting [1], the concentration at half-maximal activity (AC50) is 14.6 µM [falling, partial curve].
As to `CC(C)(C)C(=O)Nc1cc(C(F)(F)F)ccc1N1CCOCC1`, the AC50 under setting [1] is 29.1 µM [falling, single point].
With `O=C(O)CCC(=O)Nc1ccc2c(c1)Cc1cc(NC(=O)CCC(=O)O)ccc1-2`, under setting [1], the AC50 was 14.1 µM [falling, partial curve].
The same measure, in the same setting: then `C=CCn1c(=N)n(CC(=O)c2ccccc2)c2ccccc21`, with 0.398 µM [rising, full curve, poor fit]; and `Cc1cc(C)cc(NC(=S)N2CCN(c3ncc(C(F)(F)F)cc3Cl)CC2)c1`, with 0.501 µM [falling, partial curve, poor fit].
As to `Cc1ccc(NC(=O)c2ccccc2NS(=O)(=O)c2ccc(Cl)s2)cc1`, the AC50 under setting [2] is 6.51 µM [rising, partial curve, poor fit].
On to `Cc1ccccc1C(=O)OCCN(C)Cc1ccccc1`, for which the half-maximal activity concentration (AC50) under setting [1] was 0.631 µM [rising, full curve, poor fit].
As for `CCC(=O)N1N=C(c2cccc(NS(C)(=O)=O)c2)CC1c1cccs1` (stereo not drawn), the concentration at half-maximal activity (AC50) under setting [1] was 29.1 µM [falling, single point].
With `CSc1cccc(NC(=O)Nc2nc3c(C)cccc3s2)c1`, the AC50 under setting [1] is 1.58 µM [falling, full curve].
With `Nc1c(Cl)cnc(C(Cl)(Cl)Cl)c1Cl`, the AC50 under setting [1] was 14.1 µM [rising, partial curve, poor fit].
Regarding `NC(=S)Nc1cccc2[nH]ccc12`, under setting [1], the AC50 was 3.55 µM [falling, partial curve].
Consider `CCc1cccc(NC(=O)CCC(=O)O)c1`, for which the AC50 under setting [1] is 0.206 µM [rising, full curve, poor fit].
Consider `CCN(CC(=O)Nc1ccc(OC)cc1)C(=O)CSCC(=O)Nc1ccc(C)cc1`, for which the AC50 under setting [1] is 4.47 µM [rising, partial curve, poor fit].
Regarding `COc1ccc2nc(/C(C#N)=C\c3ccc(Oc4ccc([N+](=O)[O-])cn4)cc3)[nH]c2c1`, the concentration at half-maximal activity (AC50) was 32.6 µM [falling, single point] under setting [1] and 29.1 µM [rising, partial curve, poor fit] under setting [2].
As to `Cc1ccc(C(=O)Nc2ccccc2C(=O)NC(C(=O)O)C(C)C)cc1` (stereo not drawn), the AC50 under setting [1] is 8.91 µM [falling, partial curve].
Still for that read-out and setting: the result for `CS(=O)(=O)Nc1ccc(C(=O)NCCSCc2c(F)cccc2Cl)cc1` reads 35.5 µM [falling, single point]; that for `COCCCNC(=O)Cn1nnc(-c2ccccc2NC(=O)c2ccc(F)cc2)n1`, 3.55 µM [falling, partial curve, poor fit].
As to `O=C(OCC(=O)c1ccc[nH]1)c1ccc(Cl)c(Cl)c1`, the concentration at half-maximal activity (AC50) reads like this: under setting [1], 29.1 µM [falling, single point]; under setting [2], 23.1 µM [falling, partial curve, poor fit].
Consider `CCOc1ccc(NC(=O)c2cc(S(=O)(=O)N3CCOCC3)ccc2F)cc1`, for which the AC50 under setting [1] was 7.08 µM [falling, full curve, poor fit].
